Test results from US20180371044A1, “PEPTIDOMIMETIC MACROCYCLES” (Aileron Therapeutics, Inc., priority 2015, published 2018).
For at least one compound, name, drawing or mass did not settle the structure. Where a SMILES comes first, the peptide text is derived from it. Bridges are numbered along the chain shown (N, C = ends). [ ]: non-standard residue; d: D form. NMeY = CN[C@@H](Cc1ccc(O)cc1)C(=O)O; S5 = C=CCCC[C@](C)(N)C(=O)O; Nle = CCCC[C@H](N)C(=O)O

Biological target: T1, human GHRH receptor (hGHRHR) (Homo sapiens, UniProt Q02643)
T1 construct: expressed in transfected cells; host or cells: Human 293 cells
T1 sequence (Q02643 23-423): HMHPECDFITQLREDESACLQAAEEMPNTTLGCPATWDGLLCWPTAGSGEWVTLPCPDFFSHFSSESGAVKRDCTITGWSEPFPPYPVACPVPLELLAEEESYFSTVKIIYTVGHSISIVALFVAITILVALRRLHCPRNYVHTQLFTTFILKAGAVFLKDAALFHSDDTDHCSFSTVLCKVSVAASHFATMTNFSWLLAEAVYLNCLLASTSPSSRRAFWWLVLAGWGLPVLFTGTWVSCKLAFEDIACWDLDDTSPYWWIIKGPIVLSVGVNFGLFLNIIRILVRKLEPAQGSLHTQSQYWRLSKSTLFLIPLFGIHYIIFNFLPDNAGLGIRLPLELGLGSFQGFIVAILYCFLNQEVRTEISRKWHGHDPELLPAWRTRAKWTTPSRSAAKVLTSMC
Assay: GHRHR agonism measured by cAMP (HTRF) in human 293 cells expressing hGHRHR;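 further: receptor expressed transiently or stably, cells stimulated in serum-free medium, EC50 from a non-linear dose-response fit, maximal response defined by reference GHRH stimulation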
Assay type: cell-based
Conditions: 30 min at RT

CCCC[C@H](NC(=O)[C@@H](NC(=O)[C@H](CC(=O)O)NC(=O)[C@H](CCC(N)=O)NC(=O)[C@]1(C)CCCC=CCCC[C@](C)(NC(=O)[C@H](CO)NC(=O)[C@H](CC(C)C)NC(=O)[C@H](CCC(N)=O)NC(=O)[C@H](C)NC(=O)[C@H](CC(C)C)NC(=O)[C@@H](NC(=O)[C@H](CCCCN)NC(=O)[C@H](CCCNC(=N)N)NC(=O)[C@H](Cc2ccc(O)cc2)NC(=O)[C@H](CO)NC(=O)[C@H](C)NC(=O)[C@@H](NC(=O)[C@H](Cc2ccccc2)NC(=O)[C@@H](NC(=O)[C@H](C)NC(=O)[C@H](CC(=O)O)NC(=O)[C@H](C)NC(=O)[C@H](Cc2ccc(O)cc2)NC)[C@@H](C)CC)[C@@H](C)O)C(C)C)C(=O)N[C@@H](CCCNC(=N)N)C(=O)N[C@@H](CCCCN)C(=O)N[C@@H](C)C(=O)N1)[C@@H](C)CC)C(=O)N[C@@H](CO)C(=O)N[C@@H](CCCNC(=N)N)C(N)=O [SP-17] (H-[NMeY]ADAIFTASYRKVLAQLS[S5]RKA[S5]QDI[Nle]SR-NH2; staple 19-23; N-terminus and C-terminus assumed)
EC50: 10 to 25 nM
